Reference: the supplement of paper PMC3334620
In all, about 33,000 sequences were measured (“E-score (-0.5 to 0.5)”: median about -0.0034, highest 2% from about 0.25 on). The list shows a part of the results.

target: T1, Yap3 (UniProt P38749); assay: PBM E-score (8-mer binding enrichment) (E-score (-0.5 to 0.5)); higher = stronger / more preferred TF binding; details: protein concentration: 100 nM; construct: GST-full length
T1 sequence: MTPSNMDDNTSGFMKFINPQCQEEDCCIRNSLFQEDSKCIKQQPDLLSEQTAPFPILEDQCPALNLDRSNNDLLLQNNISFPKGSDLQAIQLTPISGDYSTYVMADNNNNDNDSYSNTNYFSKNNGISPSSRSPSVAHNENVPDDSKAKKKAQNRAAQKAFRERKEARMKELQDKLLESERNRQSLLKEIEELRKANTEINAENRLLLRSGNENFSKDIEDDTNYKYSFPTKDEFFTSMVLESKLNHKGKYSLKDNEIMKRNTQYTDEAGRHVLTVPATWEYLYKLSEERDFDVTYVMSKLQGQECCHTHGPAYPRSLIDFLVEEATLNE
Outline: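 Universal all-10-mer Agilent arrays, fresh or stripped once, were converted to double-stranded form by primer extension. GST-tagged yeast transcription factors from PURExpress in vitro transcription/translation, full-length or DNA-binding domain only, were applied at about 100-200 nM and detected with fluorescent anti-GST. After masliner normalisation, the Universal PBM Analysis Suite scored each ungapped eight-base word together with its reverse complement by E-score.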

Sequence	PBM E-score
AATGTGCA	0.124
GAAAAGTA	0.206
AGCATGGG	-0.211
GAATGAGA	0.102
AAAGAATC	0.0505
GATCTGCC	0.0312
ATACGATC	0.139
CCGTTCCC	-0.0607
GAGCAGCA	-0.0592
ACAGCAAT	0.141
CTAGAGGA	-0.169
GTAGTCAC	-0.175
AGAGCTAG	-0.128
GCCTGCAA	-0.0828
AGTGTAGC	-0.0538
CGCTACTC	-0.112
ACTTCGAT	0.166
AAGGGGTG	-0.233
GACAATCA	0.0761
CTTAAACC	-0.0643
GGCCCACA	-0.119
GGACCACC	-0.11
CACGTGGC	-0.2
CCTGTTTA	0.121
CGAGTAAG	0.121

Sequence	PBM E-score
CCTCGCGA	0.00623
AGGCGGTC	-0.233
CGATGAAC	-0.152
ACAAGTGG	-0.0491
ATCCGTAC	0.18
ACATGCAA	0.0301
CTAACGGA	0.249
GGAACATA	0.00432
AACAAATT	0.237
CTTTCTTC	-0.00069
CGATGTAG	-0.0655
AGGATACG	-0.156
AGAAATAC	0.00533
GCGATGAA	0.0736
CTTCAAAC	-0.0241
AGCTAGTA	0.0754
GAGGAGGC	-0.226
AACACGGT	0.0201
CTGAAACA	-0.0435
ATGGTAGA	0.0392
AGTATTTA	0.16
AGCTAGCT	0.038
CGCTTACC	0.0145
GCCACATA	0.105
ACAATGTG	0.114

Sequence	PBM E-score
GTTTGAAA	0.176
ACATGCGT	0.00122
CCTTAACG	-0.0199
AAATGCGG	0.00294
CACCACCA	-0.0998
AGATCTTA	0.0758
GCGCATTA	0.0888
CCGACGGC	-0.0688
CGTGATGC	0.0658
CGGGATGC	-0.2
GTTACTCA	0.161
CTTGCGCA	0.148
GATGTGTA	0.067
CCATTGGA	-0.134
CGACGGAC	0.0195
AAAATGAA	0.208
CTTTGCGC	0.0871
CATTTCGC	0.0891
ATCAAGCG	-0.032
AAGATTTC	0.163
ACCATTTG	-0.0787
ATCATCTG	-0.0395
GAACTAAA	0.0567
AGCTTGAA	-0.0302
TCAGACCA	0.0975

Sequence	PBM E-score
GCGATTAA	0.216
CAGTCCCG	-0.356
CGTGTCAA	-0.212
CGTGCTAG	-0.177
GAGGCGTA	0.035
AACTATAT	0.309
AGTAGCTG	-0.0134
CGCGACAC	0.111
GGACAGAC	-0.191
ATAGGCGG	0.109
GTTTGGAA	0.0622
CGCTTCCA	-0.0828
ATTTTACC	0.297
ACTTCTCA	0.00447
GACAGTGC	-0.0249
CGTGAGCA	-0.173
CAATACCG	-0.0587
CGAGGAAG	-0.122
GAAGGATC	-0.144
ACCACGTA	-0.19
AGTGCGTA	-0.0734
CCTTATGA	0.113
CAAGTTAC	0.108
GGAGCGCA	-0.261
CCTTTCAG	-0.198

Sequence	PBM E-score
AATGTCTA	0.0499
TTGCAAAA	0.237
GGAGATCC	-0.211
CAAGCAAG	-0.169
AATGTTAA	0.0558
ACTGCGAT	0.0212
AGACCGCA	-0.099
CACCGACC	-0.105
AGAGTTCA	-0.155
CATTTGGA	-0.0842
CTAAGTTC	-0.18
AACATATA	0.23
AGGGCTGG	-0.175
GACCCGTC	-0.326
CGGGGGGA	-0.42
CATTTCCG	0.228
ACCCCACA	-0.00151
AAGGGTGC	0.00681
TAGTCTCA	-0.034
CTCGGAGC	-0.147
AACCTACT	0.16
CAAAAAGA	0.0468
CGTTAGGC	-0.174
CTACGACA	0.0833
CCCGCCAG	-0.0733

As a working copy, some entries already given.
Sequence	PBM E-score
GTTACTCA	0.161
CTTGCGCA	0.148
GATGTGTA	0.067
CCATTGGA	-0.134
CGACGGAC	0.0195
AAAATGAA	0.208

More entries.

Sequence	PBM E-score
ACCCAGAG	0.0143
CCTGGCAA	0.012
GGCCTCGA	-0.0664
AGCTCCAA	0.124
GCTTCCCC	-0.346
ATCAACCC	0.0349
AGGCGCGA	-0.00335
TCAAGGGA	-0.103
ATTACCGC	0.183
GTCACTAA	0.195
AATTCACA	0.238
GACGGGGC	-0.148
CAACGTTA	0.204
CTACACAC	0.072
CCCGTAGC	-0.142
AATAAGCG	0.0778
CGTGCAGC	-0.165
ATAATGGA	0.188
GGCAAGTA	0.0706
AATAAAAC	0.315
GTCAGAAA	-0.0404
ACACAACC	0.144
CATGATTC	0.0254
ATACTATG	0.162
ACATGCTG	-0.0157

Sequence	PBM E-score
GGGGGCCA	-0.363
ACCCATTC	0.0556
CCTAGGCG	-0.136
TTACTAAA	0.401
GTATTCCA	0.122
CGAAGTGC	0.0539
CATGTCCG	-0.255
AGCGCTAG	0.0967
CTACCTCA	-0.0133
ACGCAAGG	0.0117
AGACCGGG	-0.146
CTCGAATC	-0.101
CCCGGGCA	-0.358
CACACGCG	0.0812
CCTTCAGA	-0.195
CCGGACGA	-0.0258
ATAACAGA	0.154
AACAAAAC	0.239
ACCGACTG	-0.0519
TACCGGCA	0.015
CACCGGTC	-0.344
AGGGTTGA	-0.0924
